# Experimental data from the supplement of paper PMC8728848.
# The other results are listed elsewhere or left out.
# B1: GS7807G-bfa-506-18-506 (Bacteroides fragilis) (protein)
# chain: ASCDKFDEINTDPDATTKVTSSLLATGLLLDITSSSASKSFIYDELLAKQMAWGESMEDYQYNVFGRSGFGGYTTLINAQKMVESVSDDNVNAYDGLAHFIKAYKIFYMSMEMGDLPYEEALQGELGLVRPKYNTQKEVMNFILSDLETAYELFSTAKDFDGDPILGGSISKWKKATTAFQLKVLMHLSKKESDADLKVKERFARIVASGSLMESNEDNLQMKYADKANTVYPFHNTNTKHAGYAMLSTMLIDKFKATGDIRMFYYAKPAKAKLNEGVTADSWDAYIGTDPSLPFEQIEKAYATEQYSGFNARYTDYPSGEPVVRLGYAEQNFILAEAAVRGWISGDASAYYKKAIRAHMEFIASNTPDEEVYHHGHPITEEAIAAFLETPAIQLSGEKEEDIEKILTQRYLASFMQHPYDVYYDYRRTGYPVLPINPATNRNTMNDRLPMRWMYPKSESDYNLEHQNEALERQFGGVDDVNKLMWILQ
# How the values were obtained:
# Assay in all cases: glycan array binding signal (z-score within array); higher = stronger binding
# Settings in all cases: glycan notation: IUPAC condensed, linker removed
# [1] = molecular target: Man(a1-2)Man(a1-3)[Man(a1-2)Man(a1-6)]Man(a1-6)[Man(a1-2)Man(a1-2)Man(a1-3)]Man
# In short: (§1)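 Glycan array data came from 3228 arrays in the Consortium for Functional Glycomics database, and only arrays with an available protein sequence were kept. Glycan names were put into IUPAC-condensed notation, and columns mapping to the same glycan were averaged. The binding signal is a within-array Z-score, averaged across arrays of one protein sequence run at different concentrations or buffers and across linkers. A negative Z-score can be read as non-binding.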
# [2] = molecular target: Man(a1-2)Man(a1-3)[Man(a1-2)Man(a1-6)]Man(a1-6)[Man(a1-2)Man(a1-2)Man(a1-3)]Man(b1-4)GlcNAc(b1-4)GlcNAc
# In short: as §1
# [3] = molecular target: Man(a1-2)Man(a1-3)[Man(a1-6)]Man(a1-6)[Man(a1-2)Man(a1-3)]Man(b1-4)GlcNAc(b1-4)GlcNAc
# In short: as §1
# [4] = molecular target: Man(a1-2)Man(a1-6)[Man(a1-3)]Man(a1-6)[Man(a1-2)Man(a1-2)Man(a1-3)]Man
# In short: as §1
# [5] = molecular target: Man(a1-2)Man(a1-6)[Man(a1-3)]Man(a1-6)[Man(a1-2)Man(a1-2)Man(a1-3)]Man(b1-4)GlcNAc(b1-4)GlcNAc
# In short: as §1
# Man(a1-3)[Man(a1-6)]Man = molecular target: Man(a1-3)[Man(a1-6)]Man
# In short: as §1
# [6] = molecular target: Man(a1-3)[Man(a1-6)]Man(a1-6)[Man(a1-2)Man(a1-3)]Man(b1-4)GlcNAc(b1-4)GlcNAc
# In short: as §1
# [7] = molecular target: Man(a1-3)[Man(a1-6)]Man(a1-6)[Man(a1-3)]Man
# In short: as §1
# [8] = molecular target: Man(a1-3)[Man(a1-6)]Man(a1-6)[Man(a1-3)]Man(b1-4)GlcNAc(b1-4)GlcNAc
# In short: as §1
# [9] = molecular target: Man(a1-3)[Man(a1-6)]Man(b1-4)GlcNAc(b1-4)GlcNAc
# In short: as §1
# [10] = molecular target: Man(a1-3)[Man(a1-6)]Man(b1-4)GlcNAc(b1-4)[Fuc(a1-6)]GlcNAc
# In short: as §1
# Man(a1-6)Man = molecular target: Man(a1-6)Man
# In short: as §1
# Man(b1-4)GlcNAc = molecular target: Man(b1-4)GlcNAc
# In short: as §1
# MurNAc(b1-4)GlcNAc = molecular target: MurNAc(b1-4)GlcNAc
# In short: as §1
# Neu5Ac(a2-3)Gal = molecular target: Neu5Ac(a2-3)Gal
# In short: as §1
# [11] = molecular target: Neu5Ac(a2-3)Gal(b1-3)GalNAc
# In short: as §1
# [12] = molecular target: Neu5Ac(a2-3)Gal(b1-3)GalNAc(b1-3)Gal(a1-4)Gal(b1-4)Glc
# In short: as §1
# [13] = molecular target: Neu5Ac(a2-3)Gal(b1-3)GalNAc(b1-4)[Neu5Ac(a2-3)]Gal(b1-4)Glc
# In short: as §1
# [14] = molecular target: Neu5Ac(a2-3)Gal(b1-3)GalNAc(b1-4)[Neu5Ac(a2-8)Neu5Ac(a2-3)]Gal(b1-4)Glc
# In short: as §1
# [15] = molecular target: Neu5Ac(a2-3)Gal(b1-3)GalNAc6S
# In short: as §1
# [16] = molecular target: Neu5Ac(a2-3)Gal(b1-3)GlcNAc
# In short: as §1
# [17] = molecular target: Neu5Ac(a2-3)Gal(b1-3)GlcNAc(b1-2)Man
# In short: as §1
# [18] = molecular target: Neu5Ac(a2-3)Gal(b1-3)GlcNAc(b1-2)Man(a1-3)[GlcNAc(b1-4)][Neu5Ac(a2-3)Gal(b1-3)GlcNAc(b1-2)Man(a1-6)]Man(b1-4)GlcNAc(b1-4)GlcNAc
# In short: as §1
# [19] = molecular target: Neu5Ac(a2-3)Gal(b1-3)GlcNAc(b1-2)Man(a1-3)[Neu5Ac(a2-3)Gal(b1-3)GlcNAc(b1-2)Man(a1-6)]Man(b1-4)GlcNAc(b1-4)GlcNAc
# In short: as §1
# [20] = molecular target: Neu5Ac(a2-3)Gal(b1-3)GlcNAc(b1-3)Gal(b1-3)GlcNAc
# In short: as §1
# [21] = molecular target: Neu5Ac(a2-3)Gal(b1-3)GlcNAc(b1-3)Gal(b1-4)GlcNAc
# In short: as §1
# [22] = molecular target: Neu5Ac(a2-3)Gal(b1-3)GlcNAc(b1-3)GalNAc
# In short: as §1
# [23] = molecular target: Neu5Ac(a2-3)Gal(b1-3)GlcNAc(b1-4)Gal(b1-4)Glc
# In short: as §1
# [24] = molecular target: Neu5Ac(a2-3)Gal(b1-3)GlcNAc(b1-6)GalNAc
# In short: as §1
# [25] = molecular target: Neu5Ac(a2-3)Gal(b1-3)GlcNAc6S
# In short: as §1
# [26] = molecular target: Neu5Ac(a2-3)Gal(b1-3)[Fuc(a1-4)]GlcNAc
# In short: as §1
# [27] = molecular target: Neu5Ac(a2-3)Gal(b1-3)[Fuc(a1-4)]GlcNAc(b1-3)Gal(b1-3)[Fuc(a1-4)]GlcNAc
# In short: as §1
# [28] = molecular target: Neu5Ac(a2-3)Gal(b1-3)[Fuc(a1-4)]GlcNAc(b1-3)Gal(b1-4)[Fuc(a1-3)]GlcNAc
# In short: as §1
# [29] = molecular target: Neu5Ac(a2-3)Gal(b1-3)[GlcNAc(b1-6)]GalNAc
# In short: as §1
# [30] = molecular target: Neu5Ac(a2-3)Gal(b1-3)[Neu5Ac(a2-6)]GalNAc
# In short: as §1
# [31] = molecular target: Neu5Ac(a2-3)Gal(b1-3)[Neu5Ac(a2-6)]GlcNAc(b1-3)[Fuc(a1-3)[Gal(b1-4)]GlcNAc(b1-6)]Gal(b1-4)Glc
# In short: as §1
# [32] = molecular target: Neu5Ac(a2-3)Gal(b1-3)]Neu5Ac(a2-3)Gal(b1-4)]GlcNAc
# In short: as §1
binder,measurement,setting,value
B1,glycan array binding signal (z-score),[1],-0.723
same,glycan array binding signal (z-score),[2],-0.63
same,glycan array binding signal (z-score),[3],-0.499
same,glycan array binding signal (z-score),[4],-0.659
same,glycan array binding signal (z-score),[5],-0.229
same,glycan array binding signal (z-score),Man(a1-3)[Man(a1-6)]Man,-0.341
same,glycan array binding signal (z-score),[6],0.878
same,glycan array binding signal (z-score),[7],-0.722
same,glycan array binding signal (z-score),[8],3.61
same,glycan array binding signal (z-score),[9],-0.876
same,glycan array binding signal (z-score),[10],-0.696
same,glycan array binding signal (z-score),Man(a1-6)Man,-0.521
same,glycan array binding signal (z-score),Man(b1-4)GlcNAc,-0.28
same,glycan array binding signal (z-score),MurNAc(b1-4)GlcNAc,-0.417
same,glycan array binding signal (z-score),Neu5Ac(a2-3)Gal,-0.779
same,glycan array binding signal (z-score),[11],-0.044
same,glycan array binding signal (z-score),[12],-0.786
same,glycan array binding signal (z-score),[13],-0.428
same,glycan array binding signal (z-score),[14],0.012
same,glycan array binding signal (z-score),[15],-0.744
same,glycan array binding signal (z-score),[16],-0.636
same,glycan array binding signal (z-score),[17],2.81
same,glycan array binding signal (z-score),[18],-0.528
same,glycan array binding signal (z-score),[19],-0.478
same,glycan array binding signal (z-score),[20],-0.944
same,glycan array binding signal (z-score),[21],-0.475
same,glycan array binding signal (z-score),[22],-0.851
same,glycan array binding signal (z-score),[23],-0.981
same,glycan array binding signal (z-score),[24],-0.197
same,glycan array binding signal (z-score),[25],-0.396
same,glycan array binding signal (z-score),[26],-0.571
same,glycan array binding signal (z-score),[27],0.089
same,glycan array binding signal (z-score),[28],-0.742
same,glycan array binding signal (z-score),[29],-0.969
same,glycan array binding signal (z-score),[30],-0.671
same,glycan array binding signal (z-score),[31],-0.665
same,glycan array binding signal (z-score),[32],-0.87

# Reformatted: entries from further up.
binder	measurement	setting	value
B1	glycan array binding signal (z-score)	[1]	-0.723
same	glycan array binding signal (z-score)	[2]	-0.63
